These are yes or no findings as the source states them, for the method shown. Some entries that bind do so weakly or less than the wild type.
Columns and labels:
[1] = biological target: ZEBOV GP protein (coated, ELISA) (Zaire ebolavirus (ZEBOV)) (UniProt Q05320); assay: ELISA cross-competition on GP-coated plates
[2] = biological target: ZEBOV GP protein (coated, ELISA) (Zaire ebolavirus (ZEBOV)) (UniProt Q05320); assay: ELISA titration on coated GP

Amino acid sequences for entries named in this document (tags omitted). Residues count along the entry.
UniProt Q05320, residues 33-650: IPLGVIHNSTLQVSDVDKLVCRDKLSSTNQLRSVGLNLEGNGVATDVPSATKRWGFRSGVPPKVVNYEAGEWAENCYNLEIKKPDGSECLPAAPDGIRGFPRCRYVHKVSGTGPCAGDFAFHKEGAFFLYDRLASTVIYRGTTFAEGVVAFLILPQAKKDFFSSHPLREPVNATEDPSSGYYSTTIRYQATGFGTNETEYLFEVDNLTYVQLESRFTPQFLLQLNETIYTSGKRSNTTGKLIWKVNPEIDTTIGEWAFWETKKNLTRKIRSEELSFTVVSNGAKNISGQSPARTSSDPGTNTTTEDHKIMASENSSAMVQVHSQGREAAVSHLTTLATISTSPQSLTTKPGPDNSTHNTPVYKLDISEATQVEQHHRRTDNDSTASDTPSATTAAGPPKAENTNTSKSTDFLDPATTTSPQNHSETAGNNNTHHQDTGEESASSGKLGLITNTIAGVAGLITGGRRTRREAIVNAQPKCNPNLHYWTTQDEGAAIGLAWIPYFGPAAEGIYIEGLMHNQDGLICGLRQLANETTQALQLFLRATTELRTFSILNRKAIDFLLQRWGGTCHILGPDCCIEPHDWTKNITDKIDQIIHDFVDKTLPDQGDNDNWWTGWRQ

B1: EVB100 (antibody, V domains shown)
VH: QVQLQESGPGLVKPSDTLSLTCTVSGGSLSSFYWSWIRQPPGKGLEWIGYIYYSGSPNYSPSLESRVTMSVDTTRNQISLKLDSVTAADTAVYYCVRASRSYYWGSYRPTAFDSWGQGTLVTVSS
VL: SYELTQPLSVSVSPGQTAIFTCSGDNLGDKYVCWFQQRPGQSPMLLIYQDNKRPSGIPERFSGSNSGNTATLTISGTQSTDEADYYCQTWDSTVVFGGGTKLTVL
Question: B1 was tested. Which binding [1] did it give?
Answer: The binding was “binds”.

Question: What about the binding [2] of the same binder?
Answer: Its binding is “binds”.

From patent WO2016075546A2
